Differences between knockout arms are mostly noise.
Tested on: HCC-38
Assay: relative cell number vs DMSO control (72 h) (% of DMSO); higher = less growth inhibition (more cells)
Procedure: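 QMAP-Seq: a pool of 5 breast cancer cell lines (ZR-75-1, SKBR3, HCC-38, MDA-MB-231, BT-20), each carrying 12 doxycycline-inducible Cas9 sgRNA perturbations (11 knockouts plus non-targeting sgNT), was treated with compounds for 72 h at four 10-fold doses (10 nM-10 uM or 1 nM-1 uM range). Barcodes were amplified and sequenced, and cell number was interpolated from 293T spike-in standard curves. The result is expressed as % of the median of DMSO wells. Two biological replicates.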

CC[C@H](C)C(=O)O[C@H]1C[C@@H](C)C=C2C=C[C@H](C)[C@H](CC[C@@H]3C[C@@H](O)CC(=O)O3)[C@H]21 [Lovastatin]
Details | relative cell number
sgRNA knockout: sgATF3, 10 nM | 93.2
sgRNA knockout: sgATF3, 100 nM | 83.58
sgRNA knockout: sgATF3, 1000 nM | 96.5
sgRNA knockout: sgATF3, 10000 nM | 74.5
sgRNA knockout: sgATF4, 10 nM | 95.9
sgRNA knockout: sgATF4, 100 nM | 80
sgRNA knockout: sgATF4, 1000 nM | 90.3
sgRNA knockout: sgATF4, 10000 nM | 76.2
sgRNA knockout: sgATF6, 10 nM | 101
sgRNA knockout: sgATF6, 100 nM | 99.5
sgRNA knockout: sgATF6, 1000 nM | 98.1
sgRNA knockout: sgATF6, 10000 nM | 72.8
sgRNA knockout: sgATG7, 10 nM | 94.3
sgRNA knockout: sgATG7, 100 nM | 82.77
sgRNA knockout: sgATG7, 1000 nM | 87
sgRNA knockout: sgATG7, 10000 nM | 73.1
sgRNA knockout: sgERN1, 10 nM | 86
sgRNA knockout: sgERN1, 100 nM | 86.2
sgRNA knockout: sgERN1, 1000 nM | 93.3
sgRNA knockout: sgERN1, 10000 nM | 79.3
sgRNA knockout: sgHSF1, 10 nM | 107
sgRNA knockout: sgHSF1, 100 nM | 92.5
sgRNA knockout: sgHSF1, 1000 nM | 102
sgRNA knockout: sgHSF1, 10000 nM | 60.9
sgRNA knockout: sgHSF2, 10 nM | 96.6
sgRNA knockout: sgHSF2, 100 nM | 82.2
sgRNA knockout: sgHSF2, 1000 nM | 88.6
sgRNA knockout: sgHSF2, 10000 nM | 76.1
sgRNA knockout: sgKEAP1, 10 nM | 129
sgRNA knockout: sgKEAP1, 100 nM | 80.2
sgRNA knockout: sgKEAP1, 1000 nM | 110
sgRNA knockout: sgKEAP1, 10000 nM | 72.9
sgRNA knockout: sgNFE2L2, 10 nM | 84.9
sgRNA knockout: sgNFE2L2, 100 nM | 81.8
sgRNA knockout: sgNFE2L2, 1000 nM | 94.9
sgRNA knockout: sgNFE2L2, 10000 nM | 76.8
sgRNA knockout: sgSLC35F2, 10 nM | 94.7
sgRNA knockout: sgSLC35F2, 100 nM | 79.1
sgRNA knockout: sgSLC35F2, 1000 nM | 94
sgRNA knockout: sgSLC35F2, 10000 nM | 69.9
sgRNA knockout: sgXBP1, 10 nM | 84.6
sgRNA knockout: sgXBP1, 100 nM | 79.6
sgRNA knockout: sgXBP1, 1000 nM | 97.5
sgRNA knockout: sgXBP1, 10000 nM | 78.2

CC(=O)Nc1nc(C)c(S(=O)(=O)Nc2ccc(C(O)(C(F)(F)F)C(F)(F)F)cc2)s1 [SR1001]
Details | relative cell number
sgRNA knockout: sgATF3, 10 nM | 103
sgRNA knockout: sgATF3, 100 nM | 99.3
sgRNA knockout: sgATF3, 1000 nM | 121
sgRNA knockout: sgATF3, 10000 nM | 106
sgRNA knockout: sgATF4, 10 nM | 100
sgRNA knockout: sgATF4, 100 nM | 93.8
sgRNA knockout: sgATF4, 1000 nM | 111
sgRNA knockout: sgATF4, 10000 nM | 103
sgRNA knockout: sgATF6, 10 nM | 101
sgRNA knockout: sgATF6, 100 nM | 92.6
sgRNA knockout: sgATF6, 1000 nM | 118
sgRNA knockout: sgATF6, 10000 nM | 108
sgRNA knockout: sgATG7, 10 nM | 97.7
sgRNA knockout: sgATG7, 100 nM | 95.1
sgRNA knockout: sgATG7, 1000 nM | 119
sgRNA knockout: sgATG7, 10000 nM | 104
sgRNA knockout: sgERN1, 10 nM | 91.5
sgRNA knockout: sgERN1, 100 nM | 98.5
sgRNA knockout: sgERN1, 1000 nM | 122
sgRNA knockout: sgERN1, 10000 nM | 112
sgRNA knockout: sgHSF1, 10 nM | 122
sgRNA knockout: sgHSF1, 100 nM | 106
sgRNA knockout: sgHSF1, 1000 nM | 129
sgRNA knockout: sgHSF1, 10000 nM | 128
sgRNA knockout: sgHSF2, 10 nM | 102
sgRNA knockout: sgHSF2, 100 nM | 96.8
sgRNA knockout: sgHSF2, 1000 nM | 125
sgRNA knockout: sgHSF2, 10000 nM | 117
sgRNA knockout: sgKEAP1, 10 nM | 117
sgRNA knockout: sgKEAP1, 100 nM | 100
sgRNA knockout: sgKEAP1, 1000 nM | 147
sgRNA knockout: sgKEAP1, 10000 nM | 137
sgRNA knockout: sgNFE2L2, 10 nM | 91.5
sgRNA knockout: sgNFE2L2, 100 nM | 100
sgRNA knockout: sgNFE2L2, 1000 nM | 106
sgRNA knockout: sgNFE2L2, 10000 nM | 99.3
sgRNA knockout: sgSLC35F2, 10 nM | 91.9
sgRNA knockout: sgSLC35F2, 100 nM | 104
sgRNA knockout: sgSLC35F2, 1000 nM | 113
sgRNA knockout: sgSLC35F2, 10000 nM | 99.6
sgRNA knockout: sgXBP1, 10 nM | 90.8
sgRNA knockout: sgXBP1, 100 nM | 99.3
sgRNA knockout: sgXBP1, 1000 nM | 117
sgRNA knockout: sgXBP1, 10000 nM | 103

COc1cc([C@@H]2c3cc4c(cc3[C@@H](O[C@@H]3O[C@@H]5CO[C@@H](C)O[C@H]5[C@H](O)[C@H]3O)[C@H]3COC(=O)[C@H]23)OCO4)cc(OC)c1O [Etoposide]
Details | relative cell number
sgRNA knockout: sgATF3, 10 nM | 75
sgRNA knockout: sgATF3, 100 nM | 90.1
sgRNA knockout: sgATF3, 1000 nM | 34.7
sgRNA knockout: sgATF3, 10000 nM | 22.6
sgRNA knockout: sgATF4, 10 nM | 63.3
sgRNA knockout: sgATF4, 100 nM | 75
sgRNA knockout: sgATF4, 1000 nM | 26.97
sgRNA knockout: sgATF4, 10000 nM | 18.4
sgRNA knockout: sgATF6, 10 nM | 67.2
sgRNA knockout: sgATF6, 100 nM | 78.1
sgRNA knockout: sgATF6, 1000 nM | 35.5
sgRNA knockout: sgATF6, 10000 nM | 20.8
sgRNA knockout: sgATG7, 10 nM | 73.6
sgRNA knockout: sgATG7, 100 nM | 79
sgRNA knockout: sgATG7, 1000 nM | 33.1
sgRNA knockout: sgATG7, 10000 nM | 24.4
sgRNA knockout: sgERN1, 10 nM | 74.3
sgRNA knockout: sgERN1, 100 nM | 74.3
sgRNA knockout: sgERN1, 1000 nM | 33.5
sgRNA knockout: sgERN1, 10000 nM | 18.4
sgRNA knockout: sgHSF1, 10 nM | 60.1
sgRNA knockout: sgHSF1, 100 nM | 74.3
sgRNA knockout: sgHSF1, 1000 nM | 30.6
sgRNA knockout: sgHSF1, 10000 nM | 23.5
sgRNA knockout: sgHSF2, 10 nM | 79.1
sgRNA knockout: sgHSF2, 100 nM | 93.3
sgRNA knockout: sgHSF2, 1000 nM | 39.8
sgRNA knockout: sgHSF2, 10000 nM | 24.4
sgRNA knockout: sgKEAP1, 10 nM | 68.278
sgRNA knockout: sgKEAP1, 100 nM | 81.9
sgRNA knockout: sgKEAP1, 1000 nM | 30.9
sgRNA knockout: sgKEAP1, 10000 nM | 22
sgRNA knockout: sgNFE2L2, 10 nM | 57.8
sgRNA knockout: sgNFE2L2, 100 nM | 65.1
sgRNA knockout: sgNFE2L2, 1000 nM | 24.5
sgRNA knockout: sgNFE2L2, 10000 nM | 15.3
sgRNA knockout: sgSLC35F2, 10 nM | 71
sgRNA knockout: sgSLC35F2, 100 nM | 89.2
sgRNA knockout: sgSLC35F2, 1000 nM | 37.2
sgRNA knockout: sgSLC35F2, 10000 nM | 20.5
sgRNA knockout: sgXBP1, 10 nM | 57.5
sgRNA knockout: sgXBP1, 100 nM | 68.6
sgRNA knockout: sgXBP1, 1000 nM | 27.5
sgRNA knockout: sgXBP1, 10000 nM | 17.9
